# Shown are survivors of the treated group in tumour-free mice. Survivors were counted at the toxicity check, usually on the fifth day, unless a day is given; later deaths do not show. Schedules are NCI's codes, read here as Q, the interval in days (D) or hours (H), X, the number of doses. Some doses were run more than once; the results are listed from low to high.
# Tested on: B6D2F1 mice, nontumored toxicity test, survival
# Assay: NCI In Vivo Anticancer Drug Screen. Data for tumor model Nontumored Animals (Toxicity Test) in B6D2F1 (BDF1) mice
structure (smiles),measurement,setting,value
COc1cccc2c1C(=O)c1c(O)c3c(c(O)c1C2=O)C[C@@](O)(C(=O)CO)C[C@@H]3OC1CC(N)C(O)C(C)O1 (stereo partly specified),survivor count,"dose: 0.28 mg/kg/injection, schedule: Q03HX008 (ip), vehicle: water",6 of 6
same,survivor count,"dose: 0.37 mg/kg/injection, schedule: Q01DX009 (ip), vehicle: none",8 of 8
same,survivor count,"dose: 0.37 mg/kg/injection, schedule: Q03HX008 (ip), vehicle: none",8 of 8
same,survivor count,"dose: 0.47 mg/kg/injection, schedule: Q03HX008 (ip), vehicle: water",6 of 6
same,survivor count,"dose: 0.5 mg/kg/injection, schedule: Q01DX009 (ip), vehicle: water",6 of 6
same,survivor count,"dose: 0.5 mg/kg/injection, schedule: Q03HX024 (ip), vehicle: water",5 of 6
same,survivor count,"dose: 0.5 mg/kg/injection, schedule: Q04DX003 (ip), vehicle: saline",5 of 5
same,survivor count,"dose: 0.65 mg/kg/injection, schedule: Q03HX008 (ip), vehicle: water",8 of 8
same,survivor count,"dose: 0.65 mg/kg/injection, schedule: Q03HX016 (ip), vehicle: water",8 of 8
same,survivor count,"dose: 0.75 mg/kg/injection, schedule: Q01DX001 (ip), vehicle: none",8 of 8
same,survivor count,"dose: 0.75 mg/kg/injection, schedule: Q01DX009 (ip), vehicle: none",8 of 8
same,survivor count,"dose: 0.75 mg/kg/injection, schedule: Q03HX008 (ip), vehicle: none",5 of 8 and 8 of 8
same,survivor count,"dose: 0.75 mg/kg/injection, schedule: Q04DX003 (ip), vehicle: none",8 of 8
same,survivor count,"dose: 0.78 mg/kg/injection, schedule: Q03HX008 (ip), vehicle: water",6 of 6
same,survivor count,"dose: 1.0 mg/kg/injection, schedule: Q01DX009 (ip), vehicle: water",6 of 6
same,survivor count,"dose: 1.0 mg/kg/injection, schedule: Q03HX008 (ip), vehicle: water",6 of 6
same,survivor count,"dose: 1.0 mg/kg/injection, schedule: Q03HX024 (ip), vehicle: water",6 of 6
same,survivor count,"dose: 1.0 mg/kg/injection, schedule: Q04DX003 (ip), vehicle: saline",5 of 5
same,survivor count,"dose: 1.08 mg/kg/injection, schedule: Q03HX008 (ip), vehicle: water",8 of 8
same,survivor count,"dose: 1.08 mg/kg/injection, schedule: Q03HX016 (ip), vehicle: water",8 of 8
same,survivor count,"dose: 1.17 mg/kg/injection, schedule: Q03HX008 (ip), vehicle: water",6 of 6
same,survivor count,"dose: 1.17 mg/kg/injection, schedule: Q04DX003 (ip), vehicle: water",6 of 6
same,survivor count,"dose: 1.5 mg/kg/injection, schedule: Q01DX001 (ip), vehicle: none",8 of 8
same,survivor count,"dose: 1.5 mg/kg/injection, schedule: Q01DX009 (ip), vehicle: none",8 of 8
same,survivor count,"dose: 1.5 mg/kg/injection, schedule: Q03HX008 (ip), vehicle: none",8 of 8
same,survivor count,"dose: 1.5 mg/kg/injection, schedule: Q04DX003 (ip), vehicle: none",8 of 8
same,survivor count,"dose: 1.75 mg/kg/injection, schedule: Q03HX008 (ip), vehicle: water",6 of 6
same,survivor count,"dose: 1.75 mg/kg/injection, schedule: Q04DX003 (ip), vehicle: water",6 of 6
same,survivor count,"dose: 1.8 mg/kg/injection, schedule: Q03HX008 (ip), vehicle: water",8 of 8
same,survivor count,"dose: 1.8 mg/kg/injection, schedule: Q03HX016 (ip), vehicle: water",8 of 8
same,survivor count,"dose: 2.0 mg/kg/injection, schedule: Q01DX009 (ip), vehicle: water",6 of 6
same,survivor count,"dose: 2.0 mg/kg/injection, schedule: Q03HX008 (ip), vehicle: water",6 of 6
same,survivor count,"dose: 2.0 mg/kg/injection, schedule: Q03HX024 (ip), vehicle: water",6 of 6
same,survivor count,"dose: 2.0 mg/kg/injection, schedule: Q04DX003 (ip), vehicle: saline",5 of 5
same,survivor count,"dose: 2.4 mg/kg/injection, schedule: Q04DX003 (ip), vehicle: saline",4 of 4
same,survivor count,"dose: 2.5 mg/kg/injection, schedule: Q01DX001 (ip), vehicle: water",8 of 8
same,survivor count,"dose: 2.5 mg/kg/injection, schedule: Q04DX003 (ip), vehicle: water",6 of 6
same,survivor count,"dose: 2.6 mg/kg/injection, schedule: Q04DX003 (ip), vehicle: water",6 of 6
same,survivor count,"dose: 3.0 mg/kg/injection, schedule: Q01DX001 (ip), vehicle: none",8 of 8
same,survivor count,"dose: 3.0 mg/kg/injection, schedule: Q01DX009 (ip), vehicle: none",8 of 8
same,survivor count,"dose: 3.0 mg/kg/injection, schedule: Q03HX008 (ip), vehicle: none",7 of 8 and 8 of 8
same,survivor count,"dose: 3.0 mg/kg/injection, schedule: Q03HX008 (ip), vehicle: water",8 of 8
same,survivor count,"dose: 3.0 mg/kg/injection, schedule: Q03HX016 (ip), vehicle: water","4 of 8, 5 of 8, 7 of 8"
same,survivor count,"dose: 3.0 mg/kg/injection, schedule: Q04DX003 (ip), vehicle: none",8 of 8
same,survivor count,"dose: 3.9 mg/kg/injection, schedule: Q01DX001 (ip), vehicle: water",6 of 6
same,survivor count,"dose: 3.9 mg/kg/injection, schedule: Q04DX003 (ip), vehicle: water",6 of 6
same,survivor count,"dose: 4.0 mg/kg/injection, schedule: Q01DX001 (ip), vehicle: saline",10 of 10 and 4 of 4
same,survivor count,"dose: 4.0 mg/kg/injection, schedule: Q03HX008 (ip), vehicle: water",4 of 6
same,survivor count,"dose: 4.0 mg/kg/injection, schedule: Q04DX003 (ip), vehicle: saline",4 of 4 and 5 of 5
same,survivor count,"dose: 5.0 mg/kg/injection, schedule: Q01DX001 (ip), vehicle: water",6 of 6 and 8 of 8
same,survivor count,"dose: 5.0 mg/kg/injection, schedule: Q04DX003 (ip), vehicle: water",6 of 6
same,survivor count,"dose: 5.0 mg/kg/injection, schedule: Q08DX002 (ip), vehicle: water",6 of 6
same,survivor count,"dose: 5.9 mg/kg/injection, schedule: Q01DX001 (ip), vehicle: water",3 of 3
same,survivor count,"dose: 5.9 mg/kg/injection, schedule: Q04DX003 (ip), vehicle: water",6 of 6
same,survivor count,"dose: 6.0 mg/kg/injection, schedule: Q01DX001 (ip), vehicle: none",8 of 8
same,survivor count,"dose: 6.0 mg/kg/injection, schedule: Q04DX003 (ip), vehicle: none",8 of 8
same,survivor count,"dose: 6.67 mg/kg/injection, schedule: Q04DX003 (ip), vehicle: saline",2 of 3
same,survivor count,"dose: 6.7 mg/kg/injection, schedule: Q01DX001 (ip), vehicle: saline",10 of 10
same,survivor count,"dose: 8.0 mg/kg/injection, schedule: Q01DX001 (ip), vehicle: saline",10 of 10 and 4 of 4
same,survivor count,"dose: 8.0 mg/kg/injection, schedule: Q04DX003 (ip), vehicle: saline",5 of 5
same,survivor count,"dose: 8.9 mg/kg/injection, schedule: Q01DX001 (ip), vehicle: water",6 of 6
same,survivor count,"dose: 8.9 mg/kg/injection, schedule: Q04DX003 (ip), vehicle: water",6 of 6
same,survivor count,"dose: 10.0 mg/kg/injection, schedule: Q01DX001 (ip), vehicle: saline",10 of 10
same,survivor count,"dose: 10.0 mg/kg/injection, schedule: Q01DX001 (ip), vehicle: water",6 of 6 and 8 of 8
same,survivor count,"dose: 10.0 mg/kg/injection, schedule: Q04DX003 (ip), vehicle: water",6 of 6
same,survivor count,"dose: 10.0 mg/kg/injection, schedule: Q08DX002 (ip), vehicle: water",6 of 6
same,survivor count,"dose: 12.0 mg/kg/injection, schedule: Q01DX001 (ip), vehicle: none",8 of 8
same,survivor count,"dose: 12.0 mg/kg/injection, schedule: Q01DX001 (ip), vehicle: saline",10 of 10 and 4 of 4
same,survivor count,"dose: 13.3 mg/kg/injection, schedule: Q01DX001 (ip), vehicle: water",6 of 6
same,survivor count,"dose: 15.0 mg/kg/injection, schedule: Q01DX001 (ip), vehicle: saline",8 of 10 and 10 of 10
same,survivor count,"dose: 16.0 mg/kg/injection, schedule: Q01DX001 (ip), vehicle: saline",10 of 10 and 4 of 4
same,survivor count,"dose: 20.0 mg/kg/injection, schedule: Q01DX001 (ip), vehicle: water","4 of 6, 6 of 6, 8 of 8"
same,survivor count,"dose: 20.0 mg/kg/injection, schedule: Q08DX002 (ip), vehicle: water",6 of 6
same,survivor count,"dose: 32.0 mg/kg/injection, schedule: Q01DX001 (ip), vehicle: saline",10 of 10
same,survivor count,"dose: 64.0 mg/kg/injection, schedule: Q01DX001 (ip), vehicle: saline",10 of 10
same,survivor count,"dose: 128.0 mg/kg/injection, schedule: Q01DX001 (ip), vehicle: saline",10 of 10

# Source: PubChem BioAssay AID186 (DTP/NCI, 2004)
